Results published in PMC8391897.
Changes are numbered by the printed parent chain. These are yes or no findings as the source states them, for the method shown. In cells and extracts the contact can be indirect. Some entries that bind do so weakly or less than the wild type. Tags and fused reporters may be left off the sequences shown.

Chains of the proteins cited; added tags and fusions are not shown. Lines headed by an entry give the natural chain unless they say otherwise; changes in a name come on top. A line that says so, or that is headed by a name, gives the form on record, which may keep a tag or linker.
UniProt Q60598: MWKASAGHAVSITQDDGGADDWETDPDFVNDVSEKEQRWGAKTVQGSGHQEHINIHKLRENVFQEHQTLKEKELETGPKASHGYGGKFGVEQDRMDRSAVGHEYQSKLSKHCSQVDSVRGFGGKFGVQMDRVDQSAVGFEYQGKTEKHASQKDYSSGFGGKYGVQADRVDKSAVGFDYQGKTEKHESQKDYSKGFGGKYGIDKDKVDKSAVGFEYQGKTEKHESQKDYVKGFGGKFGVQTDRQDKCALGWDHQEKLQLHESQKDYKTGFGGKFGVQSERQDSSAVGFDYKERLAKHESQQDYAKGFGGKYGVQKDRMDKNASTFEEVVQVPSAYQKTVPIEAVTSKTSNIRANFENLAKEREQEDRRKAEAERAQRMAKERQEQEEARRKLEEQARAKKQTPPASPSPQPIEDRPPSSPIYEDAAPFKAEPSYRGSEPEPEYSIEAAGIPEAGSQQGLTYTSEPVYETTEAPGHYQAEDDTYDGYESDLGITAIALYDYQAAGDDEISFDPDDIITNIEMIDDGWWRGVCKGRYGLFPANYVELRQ
GFP-cortactin Y421/466/482D (Q60598, form named): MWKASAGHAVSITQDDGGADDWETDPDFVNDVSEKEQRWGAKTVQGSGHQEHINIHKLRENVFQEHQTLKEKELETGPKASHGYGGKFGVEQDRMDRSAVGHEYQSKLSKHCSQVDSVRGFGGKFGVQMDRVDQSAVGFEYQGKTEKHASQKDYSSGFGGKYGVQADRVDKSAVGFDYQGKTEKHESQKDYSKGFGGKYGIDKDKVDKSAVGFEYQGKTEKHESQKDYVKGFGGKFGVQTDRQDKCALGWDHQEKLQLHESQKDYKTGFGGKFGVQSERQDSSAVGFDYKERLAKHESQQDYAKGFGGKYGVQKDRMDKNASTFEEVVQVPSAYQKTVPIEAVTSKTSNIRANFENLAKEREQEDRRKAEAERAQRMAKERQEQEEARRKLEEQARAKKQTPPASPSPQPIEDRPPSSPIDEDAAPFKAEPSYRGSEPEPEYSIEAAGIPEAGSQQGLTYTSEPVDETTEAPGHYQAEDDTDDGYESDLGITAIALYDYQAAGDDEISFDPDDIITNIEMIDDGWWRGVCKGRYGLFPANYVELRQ
GFP-cortactin Y421/466/482F (Q60598, form named): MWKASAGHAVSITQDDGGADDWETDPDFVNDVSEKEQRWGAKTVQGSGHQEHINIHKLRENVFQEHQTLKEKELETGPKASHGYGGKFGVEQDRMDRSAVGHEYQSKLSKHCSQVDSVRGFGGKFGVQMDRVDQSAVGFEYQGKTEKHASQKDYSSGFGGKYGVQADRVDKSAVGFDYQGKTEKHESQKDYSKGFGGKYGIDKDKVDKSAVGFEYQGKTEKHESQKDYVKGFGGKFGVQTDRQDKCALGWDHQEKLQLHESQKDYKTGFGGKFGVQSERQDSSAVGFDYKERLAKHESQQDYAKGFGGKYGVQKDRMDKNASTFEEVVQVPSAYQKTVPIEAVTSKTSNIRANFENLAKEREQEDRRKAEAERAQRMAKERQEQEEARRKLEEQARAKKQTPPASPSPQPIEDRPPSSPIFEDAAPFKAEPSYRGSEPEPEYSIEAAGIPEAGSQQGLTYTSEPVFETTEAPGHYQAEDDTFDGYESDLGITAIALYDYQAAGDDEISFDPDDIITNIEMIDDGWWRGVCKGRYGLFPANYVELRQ
UniProt Q14247: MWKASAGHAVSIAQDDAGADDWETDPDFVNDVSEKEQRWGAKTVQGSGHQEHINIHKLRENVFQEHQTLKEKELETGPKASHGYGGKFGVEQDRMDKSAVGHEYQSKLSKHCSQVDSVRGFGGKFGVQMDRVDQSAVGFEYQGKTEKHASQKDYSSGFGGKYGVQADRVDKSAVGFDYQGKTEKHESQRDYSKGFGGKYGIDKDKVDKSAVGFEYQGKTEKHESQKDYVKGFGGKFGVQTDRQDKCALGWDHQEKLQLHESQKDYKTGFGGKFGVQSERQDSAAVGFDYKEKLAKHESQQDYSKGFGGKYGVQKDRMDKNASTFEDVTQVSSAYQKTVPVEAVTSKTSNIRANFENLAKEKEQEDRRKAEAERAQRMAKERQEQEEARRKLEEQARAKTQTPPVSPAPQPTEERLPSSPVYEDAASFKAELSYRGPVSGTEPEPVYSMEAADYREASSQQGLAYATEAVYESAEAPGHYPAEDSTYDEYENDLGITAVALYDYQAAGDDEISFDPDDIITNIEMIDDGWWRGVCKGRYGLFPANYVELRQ

Legend:
[1] = molecular target: T1, HA-tagged human Vav2 (human) (UniProt P52735); assay: co-IP; AGS cells co-transfected for 48 h with GFP-cortactin constructs and HA-tagged Vav2, no H. pylori; IP with α-HA antibodies, blot with α-GFP antibodies
T1 sequence: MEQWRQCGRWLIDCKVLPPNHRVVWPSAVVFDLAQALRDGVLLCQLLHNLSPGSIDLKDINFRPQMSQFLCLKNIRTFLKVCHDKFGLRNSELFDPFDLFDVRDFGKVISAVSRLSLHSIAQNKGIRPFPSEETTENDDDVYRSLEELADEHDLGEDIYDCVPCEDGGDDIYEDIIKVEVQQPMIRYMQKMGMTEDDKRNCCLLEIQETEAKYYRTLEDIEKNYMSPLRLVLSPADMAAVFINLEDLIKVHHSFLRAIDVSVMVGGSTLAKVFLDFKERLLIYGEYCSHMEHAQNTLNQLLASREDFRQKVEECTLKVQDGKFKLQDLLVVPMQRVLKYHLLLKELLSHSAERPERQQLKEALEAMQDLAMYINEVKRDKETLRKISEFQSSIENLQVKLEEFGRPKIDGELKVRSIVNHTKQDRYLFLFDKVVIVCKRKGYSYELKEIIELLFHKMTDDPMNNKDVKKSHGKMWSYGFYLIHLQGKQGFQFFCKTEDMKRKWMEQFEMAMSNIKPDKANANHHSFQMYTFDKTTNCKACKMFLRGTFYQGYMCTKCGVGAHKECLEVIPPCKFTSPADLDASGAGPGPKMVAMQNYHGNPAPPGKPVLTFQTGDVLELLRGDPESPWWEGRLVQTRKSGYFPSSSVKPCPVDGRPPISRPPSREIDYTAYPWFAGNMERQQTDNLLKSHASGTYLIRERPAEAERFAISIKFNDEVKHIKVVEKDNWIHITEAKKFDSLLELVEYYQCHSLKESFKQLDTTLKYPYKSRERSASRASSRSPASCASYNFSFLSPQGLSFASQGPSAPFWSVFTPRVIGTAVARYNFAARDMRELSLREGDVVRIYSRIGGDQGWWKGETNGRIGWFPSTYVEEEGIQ

GFP-Vav2 R425C = molecular target: T2, GFP-Vav2 R425C (UniProt P52735); assay: co-IP; AGS cells transfected with GFP-Vav2 constructs for 48 h, infected with wt H. pylori for 6 h; IP with α-GFP antibodies, blot with α-cortactin antibody
T2 sequence: T1 sequence with R425C

GFP-Vav2 Y172/159F = molecular target: T3, GFP-Vav2 Y172/159F (UniProt P52735); assay: as above
T3 sequence: T1 sequence with Y159F, Y172F

Substance	binding [1]	binding (GFP-Vav2 R425C)	binding (GFP-Vav2 Y172/159F)
GFP-cortactin Y466D (from UniProt Q60598 1-546)	binds	–	–
GFP-cortactin Y421/466/482D (from UniProt Q60598 1-546)	binds	–	–
GFP-cortactin wt (from UniProt Q60598 1-546)	binds weakly	–	–
GFP-cortactin Y421/466/482F (from UniProt Q60598 1-546)	binds weakly	–	–
cortactin phosphorylated at Y-470 (from UniProt Q14247 1-550)	–	binds	binds
GFP-cortactin Y466F (from UniProt Q60598 1-546)	binds weakly	–	–
